The list does not hold the whole screen: it gathers tests that were run many times, whatever their T/C, doses with no T/C, and many T/C values between a quarter and a half above the control. Other doses and runs of a compound stand elsewhere. T/C is the treated group as % of the vehicle group. Some entries give survivors of the animals treated and no T/C: the source files T/C as zero there, which appears to mark a toxic dose or a test without result, not a measured value. Some doses without a T/C left all or most animals alive at the check, yet need not have been tolerated: survival well below the control is almost never listed, so the zero probably covers shortened survival too. Survivors were counted at the toxicity check, usually on the fifth day, unless a day is given; later deaths do not show. Schedule codes are those of the source, taken here to give the interval after Q, in days (D) or hours (H), and the number of doses after X. Where survival is the endpoint, this PubChem deposit counts one and a half times the control or more as active, and values a quarter to a half above the control carry no call in these data; other NCI protocols may use other cut-offs. Some T/C values carry the count of animals alive at the toxicity check (mostly the fifth day); where none is given, no animal had died by that day.
Tested on: P388 leukemia ip, CD2F1 mice, survival T/C
Test: NCI In Vivo Anticancer Drug Screen. Data for tumor model P388 Leukemia (intraperitoneal) in CD2F1 (CDF1) mice
Details: T/C endpoint: median survival time, higher T/C = longer survival
[1] = dose: 200.0 mg/kg/injection, schedule: Q01DX009 (ip), vehicle: Klucel (hydroxypropylcellulose) (HPC)
[2] = dose: 100.0 mg/kg/injection, schedule: Q01DX001 (ip), vehicle: Klucel (hydroxypropylcellulose) (HPC)
[3] = dose: 100.0 mg/kg/injection, schedule: Q01DX009 (ip), vehicle: saline
[4] = dose: 200.0 mg/kg/injection, schedule: Q01DX009 (ip), vehicle: saline
[5] = dose: 120.0 mg/kg/injection, schedule: Q01DX005 (ip), vehicle: saline with Tween-80
[6] = dose: 240.0 mg/kg/injection, schedule: Q01DX005 (ip), vehicle: saline with Tween-80
[7] = dose: 240.0 mg/kg/injection, schedule: Q01DX005 (ip), vehicle: saline
[8] = dose: 60.0 mg/kg/injection, schedule: Q01DX005 (ip), vehicle: saline with Tween-80
[9] = dose: 200.0 mg/kg/injection, schedule: Q01DX005 (ip), vehicle: Klucel (hydroxypropylcellulose) (HPC)
[10] = dose: 200.0 mg/kg/injection, schedule: Q01DX005 (ip), vehicle: saline with Tween-80
[11] = dose: 50.0 mg/kg/injection, schedule: Q01DX005 (ip), vehicle: saline

What does the source list for `CCOP(=O)(OCC)Oc1cnn(C)c(=O)c1SCC`?
survivor count (dose: 1.56 mg/kg/injection, schedule: Q01DX005 (ip), vehicle: saline): 0 of 5; survivor count (dose: 3.13 mg/kg/injection, schedule: Q01DX005 (ip), vehicle: saline): 0 of 5; survivor count (dose: 6.25 mg/kg/injection, schedule: Q01DX005 (ip), vehicle: saline): 0 of 6; survivor count (dose: 12.5 mg/kg/injection, schedule: Q01DX005 (ip), vehicle: saline): 0 of 6; survivor count (dose: 25.0 mg/kg/injection, schedule: Q01DX005 (ip), vehicle: saline): 0 of 6

Which survivor count (dose: 0.5 mg/kg/injection, schedule: Q01DX009 (ip), vehicle: saline with Tween-80) does the source give for `CC(=O)OC(C)(C)/C=C/C(=O)[C@](C)(O)[C@H]1[C@H](O)C[C@@]2(C)[C@@H]3CC=C4[C@@H](C=C(O)C(=O)C4(C)C)[C@]3(C)C(=O)C[C@]12C` here?
The survivor count was 6 of 6.

Which survivor count (dose: 6.25 mg/kg/injection, schedule: Q01DX001 (ip), vehicle: saline with Tween-80) does the source give for `CC(C)Cn1c(Cl)c(/C=N\Nc2ccc([N+](=O)[O-])cc2)c2ccccc21` here?
Its survivor count is 6 of 6.

And the survivor count (dose: 12.5 mg/kg/injection, schedule: Q01DX001 (ip), vehicle: saline with Tween-80)?
The survivor count was 6 of 6.

And the survivor count (dose: 25.0 mg/kg/injection, schedule: Q01DX001 (ip), vehicle: saline with Tween-80)?
Its survivor count is 6 of 6.

What does the source list for `C=CCNC(=S)N/N=C(\C)c1ccccn1`?
survivor count (dose: 50.0 mg/kg/injection, schedule: Q01DX009 (ip), vehicle: Klucel (hydroxypropylcellulose) (HPC)): 2 of 6; survivor count (dose: 100.0 mg/kg/injection, schedule: Q01DX009 (ip), vehicle: Klucel (hydroxypropylcellulose) (HPC)): 0 of 6; survivor count [1]: 0 of 6

How did the T/C [2] turn out when `C/C(=N/N(C)C)c1ccc(Cl)cc1` was run?
Its T/C is 132 % of control.

What does the source list for `O=NN(CCCl)C(=O)NC1CCCCC1`?
T/C (dose: 2.0 mg/kg/injection, schedule: Q01DX009 (ip), vehicle: saline with Tween-80): 127 % of control; T/C (dose: 8.0 mg/kg/injection, schedule: Q01DX001 (ip), vehicle: saline + alcohol, evaluated on day 5): 126 % of control; T/C (dose: 8.0 mg/kg/injection, schedule: Q01DX001 (ip), vehicle: saline + alcohol, evaluated on day 45): 127 % of control; T/C (dose: 12.0 mg/kg/injection, schedule: Q04DX003 (ip), vehicle: carboxymethylcellulose (CMC)): 125 % of control; T/C (dose: 16.0 mg/kg/injection, schedule: Q01DX001 (ip), vehicle: saline + alcohol, evaluated on day 5): 131 % of control; T/C (dose: 16.0 mg/kg/injection, schedule: Q01DX001 (ip), vehicle: saline + alcohol, evaluated on day 45): 136 % of control; T/C (dose: 32.0 mg/kg/injection, schedule: Q01DX001 (ip), vehicle: saline + alcohol, evaluated on day 5): 147 % of control; T/C (dose: 32.0 mg/kg/injection, schedule: Q01DX001 (ip), vehicle: saline + alcohol, evaluated on day 45): 145 % of control; T/C (dose: 32.0 mg/kg/injection, schedule: Q01DX009 (ip), vehicle: saline with Tween-80): 136 % of control; survivor count (dose: 64.0 mg/kg/injection, schedule: Q01DX009 (ip), vehicle: saline with Tween-80): 5 of 6

What does the source list for `CCCCCCCCC[N+]1([O-])CCCCCC1`?
survivor count [3]: 0 of 6; survivor count [4]: 0 of 6

For `COc1cc2c(cc1OC)C13CCN4CC5=CCOC(CC(=O)O)C(C5CC41)C3N2` (stereo unspecified), which survivor count [5] is on record?
Its survivor count is 2 of 6.

And the survivor count [6]?
Its survivor count is 0 of 6.

And the survivor count [7]?
Its survivor count is 0 of 6.

With `CN(C)C12CCCCCCC1S(=O)(=O)C2` (stereo unspecified) as the compound, how does the survivor count (dose: 200.0 mg/kg/injection, schedule: Q04DX002 (ip), vehicle: saline with Tween-80) read?
The survivor count was 3 of 6.

What about the survivor count (dose: 400.0 mg/kg/injection, schedule: Q04DX002 (ip), vehicle: saline with Tween-80) of the same compound?
Its survivor count is 0 of 6.

Which survivor count [8] does the source give for `O=C(CNC(=O)Nc1ccc(Cl)c(Cl)c1)N/N=C/c1cccc(F)c1` here?
Its survivor count is 6 of 6.

And the survivor count [5]?
The survivor count was 6 of 6.

What about the survivor count [6] of the same compound?
Its survivor count is 6 of 6.

Which survivor count (dose: 50.0 mg/kg/injection, schedule: Q01DX009 (ip), vehicle: saline with Tween-80) does the source give for `O=[N+]([O-])c1ccc(C(c2ccccc2)c2ccccc2)cc1` here?
The survivor count was 6 of 6.

And the survivor count (dose: 100.0 mg/kg/injection, schedule: Q01DX009 (ip), vehicle: saline with Tween-80)?
Its survivor count is 4 of 6.

How did the survivor count (dose: 50.0 mg/kg/injection, schedule: Q01DX005 (ip), vehicle: Klucel (hydroxypropylcellulose) (HPC)) turn out when `O=C1c2ccccc2C(C2c3ccccc3C(=O)c3cc(Br)ccc32)c2ccc(Br)cc21` (stereo unspecified) was run?
The survivor count was 6 of 6.

What about the survivor count [9] of the same compound?
The survivor count was 5 of 6.

What does the source list for `CCC[CH2][Sn]([CH2]CCC)([CH2]CCC)[CH2]S(=O)(=O)O`?
survivor count (dose: 25.0 mg/kg/injection, schedule: Q01DX009 (ip), vehicle: saline): 1 of 6; survivor count (dose: 50.0 mg/kg/injection, schedule: Q01DX009 (ip), vehicle: saline): 5 of 6; survivor count [4]: 6 of 6

Which survivor count (dose: 50.0 mg/kg/injection, schedule: Q01DX005 (ip), vehicle: saline with Tween-80) does the source give for `CCCCN(CC)CCCCCCCCCCN1CCCc2cc(OC)ccc21` here?
The survivor count was 3 of 5.

What about the survivor count [10] of the same compound?
The survivor count was 0 of 5.

`CCC[CH2][Sn]([CH2]CCC)([S]CC(=O)OC)[S]CC(=O)OC` was tested. Which survivor count (dose: 50.0 mg/kg/injection, schedule: Q01DX001 (ip), vehicle: Klucel (hydroxypropylcellulose) (HPC)) did it give?
Its survivor count is 1 of 6.

And the survivor count [2]?
The survivor count was 1 of 6.

What about the survivor count (dose: 200.0 mg/kg/injection, schedule: Q01DX001 (ip), vehicle: Klucel (hydroxypropylcellulose) (HPC)) of the same compound?
Its survivor count is 0 of 6.

What about the survivor count (dose: 400.0 mg/kg/injection, schedule: Q01DX001 (ip), vehicle: Klucel (hydroxypropylcellulose) (HPC)) of the same compound?
Its survivor count is 0 of 6.

How did the survivor count (dose: 100.0 mg/kg/injection, schedule: Q01DX009 (ip), vehicle: other) turn out when `CCCCCCCCCCCCCCCC(=O)N(CC#CCN(CCCN(C)C)C(=O)CCCCCCCCCCCCCCC)CCCN(C)C` was run?
Its survivor count is 0 of 6.

And the survivor count (dose: 200.0 mg/kg/injection, schedule: Q01DX009 (ip), vehicle: other)?
The survivor count was 0 of 6.

And the survivor count (dose: 400.0 mg/kg/injection, schedule: Q01DX009 (ip), vehicle: other)?
The survivor count was 0 of 6.

How did the survivor count (dose: 75.0 mg/kg/injection, schedule: Q01DX009 (ip), vehicle: saline) turn out when `Oc1ccccc1C=NCCN1CC1.Oc1ccccc1C=NCCN1CC1.[Co+2]` was run?
Its survivor count is 0 of 6.

What about the survivor count (dose: 150.0 mg/kg/injection, schedule: Q01DX009 (ip), vehicle: saline) of the same compound?
Its survivor count is 1 of 6.

What about the survivor count (dose: 300.0 mg/kg/injection, schedule: Q01DX009 (ip), vehicle: saline) of the same compound?
Its survivor count is 0 of 6.

With `COc1ccc(C(=O)C(CN(C)C)CN(C)C)cc1OC` as the compound, how does the T/C [11] read?
The T/C was 126 % of control [5 of 6 alive].

And the survivor count [11]?
Its survivor count is 3 of 6.

And the survivor count (dose: 100.0 mg/kg/injection, schedule: Q01DX005 (ip), vehicle: saline)?
Its survivor count is 0 of 5.

What about the survivor count (dose: 200.0 mg/kg/injection, schedule: Q01DX005 (ip), vehicle: saline) of the same compound?
Its survivor count is 0 of 5.

Which survivor count [1] does the source give for `Cn1c(=O)c2c(-c3ccc(Cl)cc3)onc2n(C)c1=O` here?
The survivor count was 2 of 6.

Which results are given for `CN1CC=C(c2ccccc2)C(O)C1` (stereo unspecified)?
survivor count (dose: 100.0 mg/kg/injection, schedule: Q04DX002 (ip), vehicle: saline): 0 of 6; survivor count (dose: 120.0 mg/kg/injection, schedule: Q01DX005 (ip), vehicle: saline): 0 of 6; survivor count (dose: 200.0 mg/kg/injection, schedule: Q04DX002 (ip), vehicle: saline): 0 of 6; survivor count [7]: 0 of 6; survivor count (dose: 400.0 mg/kg/injection, schedule: Q04DX002 (ip), vehicle: saline): 0 of 6

How did the survivor count [9] turn out when `CN1C(=O)CC(=O)N(c2ccccc2)c2cc(Cl)ccc21` was run?
The survivor count was 0 of 6.

Which survivor count (dose: 90.0 mg/kg/injection, schedule: Q01DX005 (ip), vehicle: saline with Tween-80) does the source give for `O=C(CCCc1ccc(N(CCCl)CCCl)cc1)NCC(O)C(O)C(O)C(O)CO` (stereo unspecified) here?
Its survivor count is 4 of 6.

What about the survivor count [5] of the same compound?
The survivor count was 2 of 6.

What about the survivor count [6] of the same compound?
Its survivor count is 0 of 6.

Which results are given for `CCOP(=O)(OCC)c1nc(Cl)nc(Cl)c1SC(F)(F)F`?
survivor count [8]: 3 of 6; survivor count [5]: 0 of 6; survivor count [6]: 0 of 6

How did the survivor count [3] turn out when `CC(=O)NC1CC(C)(C)NC(C)(C)C1` was run?
Its survivor count is 6 of 6.

How did the survivor count [10] turn out when `Cc1noc(NC(=O)Nc2ccccc2F)c1C#N` was run?
The survivor count was 5 of 5.

— PubChem BioAssay AID330 (DTP/NCI, 2004)
